# Experimental data from PubChem BioAssay AID540256 (National Center for Advancing Translational Sciences (NCATS), 2011).
# About 3,700 (1.2%) of roughly 300,000 compounds were called active. The shares of active, inactive and inconclusive entries below differ from those in the screen. The call rests on the fitted dose curve; tested in HEK293 cells. Potencies of inconclusive entries are doubtful fits and often do not repeat.
# Assay: qHTS for Inhibitors of binding or entry into cells for Lassa Virus; further: nearly all actives have a fitted effect of over 50% in size
# Details: Lassa virus pseudotype entry inhibition, cell reporter; series mostly up to 37.9 µM
# Potency means the concentration at half of the fitted maximal effect.
row,Structure (SMILES),Potency
1,Cn1nccc1C(=O)OCC(=O)Nc1ccccc1Cl,inactive
2,CC1CCN(CCCNC(=O)c2coc3nc4ccccc4nc23)CC1,inactive
3,Cc1cccc(NC(=O)CSc2nc(C)c(CC(=O)c3ccc(Br)cc3)c(C)c2C#N)c1C,inactive
4,COCCNc1nc2c(c(=O)n(Cc3cccc(Br)c3)c(=O)n2C)n1C,inactive
5,COc1cccc(/C=N/Nc2ccnc(=O)[nH]2)c1O,"inconclusive: 0.891 µM [inhibitor, full curve, poor fit]"
6,O=C(/C=C/c1ccco1)Nc1nc(-c2ccccc2)cs1,"inconclusive: 2.59 µM [activator, partial curve]"
7,Cc1nc2nc(SCC(=O)NC3CCCCC3)nn2c(C)c1Cc1ccccc1Cl,inactive
8,Cc1ccc(C(CNC(=O)c2ccco2)N2CCN(C)CC2)cc1 (stereo not drawn),inactive
9,COc1ccc(-c2n[nH]c(=S)n2/N=C/C=C/c2ccccc2OC)cc1,"inconclusive: 3.16 µM [inhibitor, full curve, poor fit]"
10,Cc1noc(C)c1CSCC(=O)N(C)CC(=O)Nc1ccc(Cl)c(C(F)(F)F)c1,"inconclusive: 15.8 µM [inhibitor, partial curve, poor fit]"
11,Cn1c(=O)c2c(nc(SCc3ccccc3)n2Cc2ccc(Cl)cc2)n(C)c1=O,"inconclusive: 16.4 µM [inhibitor, partial curve, poor fit]"
12,CC(C)c1ccc(Nc2ncnc3onc(-c4ccc(F)cc4)c23)cc1,"inconclusive: 3.16 µM [activator, partial curve, poor fit]"
13,CC(=O)Cc1nsc(NC(=O)c2ccccc2)n1,inactive
14,CC(C)N(C(=O)COC(=O)[C@@H]1CC(O)CN1S(=O)(=O)c1ccccc1[N+](=O)[O-])C(C)C (stereo partly drawn),"inconclusive: 1.26 µM [inhibitor, single point]"
15,Cc1ccc(NC(=O)CCCN2C(=S)NC(C)(C)CC2C)cc1 (stereo not drawn),inactive
16,Cc1scc(C(=O)N/N=C/c2ccc(Cl)s2)c1C,"inconclusive: 32.6 µM [inhibitor, single point]"
17,COc1ccc(C(=O)CSc2nnc(NC(=O)C3CC(=O)N(c4ccccc4C)C3)s2)cc1 (stereo not drawn),inactive
18,CC1CN(C(=O)c2cn3ccccc3n2)CC(C)O1 (stereo not drawn),"inconclusive: 20.6 µM [activator, partial curve, poor fit]"
19,Cc1cc(-c2ccccc2)cc(C)n1,inactive
20,CCOC(=O)c1c(CSC(=N)N)n(-c2ccc(Br)cc2)c2cc(Br)c(OC(C)=O)cc12,"inconclusive: 25.9 µM [inhibitor, single point]"
21,Cc1cc(C)c(S(=O)(=O)n2cnc3ccccc32)c(C)c1,"inconclusive: 0.73 µM [inhibitor, full curve, poor fit]"
22,Cc1ccc(-n2ncc(C(=O)NCCN3CCCC3)c2C2CCN(C(=O)OC(C)(C)C)CC2)cc1C,"inconclusive: 20 µM [inhibitor, partial curve, poor fit]"

row,Structure (SMILES),Potency
1,COC(=O)C(C)(C)ONC(=O)Nc1ccccc1Br,"inconclusive: 18.4 µM [activator, partial curve, poor fit]"
2,CCCn1c(N)c(C(=O)CSc2nnc3n2CCCCC3)c(=O)n(C)c1=O,"inconclusive: 1.26 µM [inhibitor, single point]"
3,COc1ccc(C(=O)NCc2cccnc2)cc1Br,inactive
4,O=C(Nc1ccc(CN2CCOCC2)cc1)c1ccc(N2CCCC2)c([N+](=O)[O-])c1,inactive
5,COc1cccc(CNS(=O)(=O)c2ccc(N3CCCC3=O)cc2)c1,"inconclusive: 10 µM [inhibitor, partial curve, poor fit]"
6,Cc1ccc(NS(=O)(=O)c2ccc(Cl)c(C(=O)Nc3ccccc3-c3nc4ccccc4[nH]3)c2)cc1C,"inconclusive: 35.5 µM [inhibitor, single point]"
7,COc1ccc2[nH]c(=O)c(CN(Cc3cccs3)C(=S)Nc3cccc(C)c3)cc2c1,"inconclusive: 2.51 µM [inhibitor, full curve, poor fit]"
8,CCn1c(O)c(/C=N/NC(=O)c2ccccc2)c(=O)n(CC)c1=S,"inconclusive: 11.2 µM [inhibitor, partial curve, poor fit]"
9,Cc1ccc(/C=N\NC(=O)C2CC(=O)N(c3ccccc3)C2)o1 (stereo not drawn),inactive
10,O=C(c1cc(-c2ccc(Cl)cc2)n(-c2ccc(Cl)c(Cl)c2)n1)N1CCOCC1,"inconclusive: 17.8 µM [inhibitor, partial curve, poor fit]"
11,COC(=O)C1C(C(C)C)N(c2ccccc2)OC1(C)O (stereo not drawn),"inconclusive: 0.366 µM [inhibitor, partial curve, poor fit]"
12,CC(C)CC1C(=O)N(Cc2cn(Cc3ccco3)nn2)CCS(=O)(=O)N1Cc1ccc(-c2cccc(CO)c2)cc1 (stereo not drawn),"inconclusive: 25 µM [inhibitor, partial curve, poor fit]"
13,COc1ccc(/C=C/C(=O)NC(=S)NNC(=O)c2cccs2)cc1,"inconclusive: 35.5 µM [inhibitor, partial curve, poor fit]"
14,Cc1ccccc1CSc1ncc(C#N)c(N)n1,inactive
15,CN(C)CCN1C(=O)c2oc3ccc(Cl)cc3c(=O)c2C1c1cccc(Br)c1 (stereo not drawn),inactive
16,COCCCNC(=O)c1c(NC(=O)Cc2coc3c(C)c(C)ccc23)sc2c1CCCC2,"inconclusive: 8.91 µM [inhibitor, partial curve, poor fit]"
17,O=C(CCCOc1ccccc1)Nc1ncccn1,inactive
18,CCc1cccc2sc(N3CCN(C(=O)c4ccc([N+](=O)[O-])o4)CC3)nc12,"inconclusive: 35.5 µM [inhibitor, single point]"
19,COCCN(Cc1cccs1)S(=O)(=O)c1cc(-c2cc(C)no2)ccc1C,"inconclusive: 35.5 µM [inhibitor, single point]"
20,O=C(c1ccc(Cl)c(S(=O)(=O)N2CCCCC2)c1)N1CCN(c2ccccc2)CC1,"inconclusive: 22.4 µM [inhibitor, single point]"
21,CN(C)S(=O)(=O)c1ccc(N2CCCC2)c(C(=O)Nc2nc3c(ccc4ccccc43)s2)c1,"inconclusive: 32.6 µM [inhibitor, single point]"

# Fetched one by one from the list above:
row,Structure (SMILES),Potency
5,COc1cccc(CNS(=O)(=O)c2ccc(N3CCCC3=O)cc2)c1,"inconclusive: 10 µM [inhibitor, partial curve, poor fit]"
10,O=C(c1cc(-c2ccc(Cl)cc2)n(-c2ccc(Cl)c(Cl)c2)n1)N1CCOCC1,"inconclusive: 17.8 µM [inhibitor, partial curve, poor fit]"
